Experimental findings from paper PMC5035054 are described below.

Protein sequences, listed by entry. Tags and fused reporters are not part of them.
UniProt P08579: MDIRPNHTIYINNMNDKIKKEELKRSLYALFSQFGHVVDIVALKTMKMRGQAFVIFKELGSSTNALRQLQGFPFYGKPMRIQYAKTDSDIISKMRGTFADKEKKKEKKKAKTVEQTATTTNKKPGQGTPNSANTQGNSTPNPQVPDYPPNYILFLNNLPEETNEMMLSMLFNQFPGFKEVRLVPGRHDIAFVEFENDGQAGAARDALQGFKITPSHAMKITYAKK
UniProt P21675: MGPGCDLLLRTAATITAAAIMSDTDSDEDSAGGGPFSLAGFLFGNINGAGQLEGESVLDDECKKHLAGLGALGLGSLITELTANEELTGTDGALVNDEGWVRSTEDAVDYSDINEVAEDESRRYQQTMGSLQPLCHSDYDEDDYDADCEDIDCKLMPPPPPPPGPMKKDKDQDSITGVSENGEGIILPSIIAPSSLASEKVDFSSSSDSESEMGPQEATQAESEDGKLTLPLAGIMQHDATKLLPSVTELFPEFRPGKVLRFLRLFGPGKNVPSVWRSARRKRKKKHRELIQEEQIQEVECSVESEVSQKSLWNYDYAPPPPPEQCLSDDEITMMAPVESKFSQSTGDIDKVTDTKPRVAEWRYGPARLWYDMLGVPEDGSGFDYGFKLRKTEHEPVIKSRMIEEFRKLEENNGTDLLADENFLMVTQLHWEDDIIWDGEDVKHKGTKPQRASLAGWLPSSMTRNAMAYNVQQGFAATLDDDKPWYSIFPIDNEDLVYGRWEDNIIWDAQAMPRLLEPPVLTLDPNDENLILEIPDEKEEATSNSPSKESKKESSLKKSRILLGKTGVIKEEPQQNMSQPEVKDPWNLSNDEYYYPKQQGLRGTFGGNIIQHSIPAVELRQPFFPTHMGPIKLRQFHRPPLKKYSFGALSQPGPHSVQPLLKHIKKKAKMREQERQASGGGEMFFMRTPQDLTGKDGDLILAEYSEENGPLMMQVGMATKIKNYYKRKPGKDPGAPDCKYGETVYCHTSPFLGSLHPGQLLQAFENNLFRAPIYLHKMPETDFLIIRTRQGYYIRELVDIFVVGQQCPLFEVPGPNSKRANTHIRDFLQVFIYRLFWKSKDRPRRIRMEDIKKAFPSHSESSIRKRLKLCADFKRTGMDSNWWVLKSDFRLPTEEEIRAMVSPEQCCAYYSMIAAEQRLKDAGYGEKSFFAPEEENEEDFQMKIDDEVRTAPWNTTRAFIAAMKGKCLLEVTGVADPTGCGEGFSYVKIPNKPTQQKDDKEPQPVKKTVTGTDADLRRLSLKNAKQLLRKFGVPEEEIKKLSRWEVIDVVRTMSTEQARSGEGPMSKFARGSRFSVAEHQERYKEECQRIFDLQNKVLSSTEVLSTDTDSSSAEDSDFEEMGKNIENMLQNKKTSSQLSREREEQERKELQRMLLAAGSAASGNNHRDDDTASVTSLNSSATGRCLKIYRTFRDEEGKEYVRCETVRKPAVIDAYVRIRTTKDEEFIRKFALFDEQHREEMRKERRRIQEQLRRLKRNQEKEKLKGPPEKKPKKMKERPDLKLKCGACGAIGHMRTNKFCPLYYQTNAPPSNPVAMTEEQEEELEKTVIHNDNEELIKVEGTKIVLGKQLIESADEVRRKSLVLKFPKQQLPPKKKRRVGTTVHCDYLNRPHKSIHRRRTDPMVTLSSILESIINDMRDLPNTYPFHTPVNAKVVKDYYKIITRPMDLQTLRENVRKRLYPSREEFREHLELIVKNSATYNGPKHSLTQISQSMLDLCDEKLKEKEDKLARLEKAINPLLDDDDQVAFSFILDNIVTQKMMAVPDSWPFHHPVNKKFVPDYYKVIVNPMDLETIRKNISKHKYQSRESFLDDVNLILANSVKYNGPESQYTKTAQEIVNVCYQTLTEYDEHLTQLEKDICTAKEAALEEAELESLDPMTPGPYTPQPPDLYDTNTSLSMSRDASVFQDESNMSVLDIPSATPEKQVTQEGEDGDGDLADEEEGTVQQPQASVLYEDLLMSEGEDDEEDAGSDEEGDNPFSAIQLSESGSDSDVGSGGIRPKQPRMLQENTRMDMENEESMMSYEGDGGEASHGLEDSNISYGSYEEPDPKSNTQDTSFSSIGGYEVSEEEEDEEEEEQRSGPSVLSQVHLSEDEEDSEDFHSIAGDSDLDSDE
UniProt P28370: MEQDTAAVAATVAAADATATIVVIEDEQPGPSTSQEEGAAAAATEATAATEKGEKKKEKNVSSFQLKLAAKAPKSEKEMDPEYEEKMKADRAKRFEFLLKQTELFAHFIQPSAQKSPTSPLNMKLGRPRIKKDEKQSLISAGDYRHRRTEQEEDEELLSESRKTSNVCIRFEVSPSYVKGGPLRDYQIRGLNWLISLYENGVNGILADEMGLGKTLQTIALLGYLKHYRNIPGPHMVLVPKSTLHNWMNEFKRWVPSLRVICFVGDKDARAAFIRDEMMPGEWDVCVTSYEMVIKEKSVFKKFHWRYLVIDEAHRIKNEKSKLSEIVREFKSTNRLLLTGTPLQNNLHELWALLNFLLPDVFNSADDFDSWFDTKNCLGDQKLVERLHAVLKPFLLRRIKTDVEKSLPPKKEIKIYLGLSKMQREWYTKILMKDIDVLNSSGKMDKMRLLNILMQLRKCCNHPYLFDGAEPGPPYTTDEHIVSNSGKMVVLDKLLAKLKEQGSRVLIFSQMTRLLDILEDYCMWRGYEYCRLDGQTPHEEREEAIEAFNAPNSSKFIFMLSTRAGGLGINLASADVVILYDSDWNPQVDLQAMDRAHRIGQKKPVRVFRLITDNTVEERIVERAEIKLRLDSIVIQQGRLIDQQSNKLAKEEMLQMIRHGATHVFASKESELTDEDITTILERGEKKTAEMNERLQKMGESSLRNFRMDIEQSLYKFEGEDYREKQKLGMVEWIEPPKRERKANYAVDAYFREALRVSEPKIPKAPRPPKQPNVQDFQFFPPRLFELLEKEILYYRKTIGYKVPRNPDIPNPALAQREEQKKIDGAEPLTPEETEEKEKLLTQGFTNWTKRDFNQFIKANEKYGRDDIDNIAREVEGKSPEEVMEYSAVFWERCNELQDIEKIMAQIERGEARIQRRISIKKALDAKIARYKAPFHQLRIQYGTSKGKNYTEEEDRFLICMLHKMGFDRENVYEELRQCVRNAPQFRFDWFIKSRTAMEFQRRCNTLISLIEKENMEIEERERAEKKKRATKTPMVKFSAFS
UniProt Q8TAQ2: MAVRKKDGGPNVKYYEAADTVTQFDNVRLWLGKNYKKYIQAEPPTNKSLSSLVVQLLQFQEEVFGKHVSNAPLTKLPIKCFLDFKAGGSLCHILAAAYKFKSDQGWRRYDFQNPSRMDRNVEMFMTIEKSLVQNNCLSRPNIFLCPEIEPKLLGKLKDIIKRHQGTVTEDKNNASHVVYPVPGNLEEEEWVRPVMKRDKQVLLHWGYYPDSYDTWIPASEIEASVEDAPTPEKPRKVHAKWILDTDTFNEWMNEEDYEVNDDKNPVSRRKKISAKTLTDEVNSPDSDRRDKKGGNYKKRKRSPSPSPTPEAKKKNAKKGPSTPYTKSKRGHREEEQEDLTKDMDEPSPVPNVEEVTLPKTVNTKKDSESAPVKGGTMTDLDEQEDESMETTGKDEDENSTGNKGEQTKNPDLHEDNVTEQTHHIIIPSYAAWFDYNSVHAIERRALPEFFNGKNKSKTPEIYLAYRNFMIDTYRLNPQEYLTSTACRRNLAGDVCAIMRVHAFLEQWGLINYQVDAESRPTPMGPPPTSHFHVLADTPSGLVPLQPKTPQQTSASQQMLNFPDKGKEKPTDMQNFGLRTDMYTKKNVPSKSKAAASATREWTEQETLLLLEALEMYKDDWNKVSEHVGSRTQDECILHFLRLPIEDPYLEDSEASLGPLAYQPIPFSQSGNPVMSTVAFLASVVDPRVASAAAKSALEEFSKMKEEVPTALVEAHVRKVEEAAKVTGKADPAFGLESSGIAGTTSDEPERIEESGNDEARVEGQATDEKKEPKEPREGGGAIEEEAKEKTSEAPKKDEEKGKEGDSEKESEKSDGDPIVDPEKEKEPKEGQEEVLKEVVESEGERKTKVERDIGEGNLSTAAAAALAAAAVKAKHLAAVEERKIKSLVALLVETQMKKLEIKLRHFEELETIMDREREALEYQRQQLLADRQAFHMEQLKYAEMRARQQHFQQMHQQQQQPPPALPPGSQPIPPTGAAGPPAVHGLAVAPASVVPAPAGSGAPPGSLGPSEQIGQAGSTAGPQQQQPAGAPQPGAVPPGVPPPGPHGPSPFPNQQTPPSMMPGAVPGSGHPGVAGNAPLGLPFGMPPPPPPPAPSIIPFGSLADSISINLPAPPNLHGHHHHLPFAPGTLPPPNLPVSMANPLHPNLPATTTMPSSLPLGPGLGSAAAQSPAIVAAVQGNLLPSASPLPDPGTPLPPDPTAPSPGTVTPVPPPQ
UniProt Q86U86: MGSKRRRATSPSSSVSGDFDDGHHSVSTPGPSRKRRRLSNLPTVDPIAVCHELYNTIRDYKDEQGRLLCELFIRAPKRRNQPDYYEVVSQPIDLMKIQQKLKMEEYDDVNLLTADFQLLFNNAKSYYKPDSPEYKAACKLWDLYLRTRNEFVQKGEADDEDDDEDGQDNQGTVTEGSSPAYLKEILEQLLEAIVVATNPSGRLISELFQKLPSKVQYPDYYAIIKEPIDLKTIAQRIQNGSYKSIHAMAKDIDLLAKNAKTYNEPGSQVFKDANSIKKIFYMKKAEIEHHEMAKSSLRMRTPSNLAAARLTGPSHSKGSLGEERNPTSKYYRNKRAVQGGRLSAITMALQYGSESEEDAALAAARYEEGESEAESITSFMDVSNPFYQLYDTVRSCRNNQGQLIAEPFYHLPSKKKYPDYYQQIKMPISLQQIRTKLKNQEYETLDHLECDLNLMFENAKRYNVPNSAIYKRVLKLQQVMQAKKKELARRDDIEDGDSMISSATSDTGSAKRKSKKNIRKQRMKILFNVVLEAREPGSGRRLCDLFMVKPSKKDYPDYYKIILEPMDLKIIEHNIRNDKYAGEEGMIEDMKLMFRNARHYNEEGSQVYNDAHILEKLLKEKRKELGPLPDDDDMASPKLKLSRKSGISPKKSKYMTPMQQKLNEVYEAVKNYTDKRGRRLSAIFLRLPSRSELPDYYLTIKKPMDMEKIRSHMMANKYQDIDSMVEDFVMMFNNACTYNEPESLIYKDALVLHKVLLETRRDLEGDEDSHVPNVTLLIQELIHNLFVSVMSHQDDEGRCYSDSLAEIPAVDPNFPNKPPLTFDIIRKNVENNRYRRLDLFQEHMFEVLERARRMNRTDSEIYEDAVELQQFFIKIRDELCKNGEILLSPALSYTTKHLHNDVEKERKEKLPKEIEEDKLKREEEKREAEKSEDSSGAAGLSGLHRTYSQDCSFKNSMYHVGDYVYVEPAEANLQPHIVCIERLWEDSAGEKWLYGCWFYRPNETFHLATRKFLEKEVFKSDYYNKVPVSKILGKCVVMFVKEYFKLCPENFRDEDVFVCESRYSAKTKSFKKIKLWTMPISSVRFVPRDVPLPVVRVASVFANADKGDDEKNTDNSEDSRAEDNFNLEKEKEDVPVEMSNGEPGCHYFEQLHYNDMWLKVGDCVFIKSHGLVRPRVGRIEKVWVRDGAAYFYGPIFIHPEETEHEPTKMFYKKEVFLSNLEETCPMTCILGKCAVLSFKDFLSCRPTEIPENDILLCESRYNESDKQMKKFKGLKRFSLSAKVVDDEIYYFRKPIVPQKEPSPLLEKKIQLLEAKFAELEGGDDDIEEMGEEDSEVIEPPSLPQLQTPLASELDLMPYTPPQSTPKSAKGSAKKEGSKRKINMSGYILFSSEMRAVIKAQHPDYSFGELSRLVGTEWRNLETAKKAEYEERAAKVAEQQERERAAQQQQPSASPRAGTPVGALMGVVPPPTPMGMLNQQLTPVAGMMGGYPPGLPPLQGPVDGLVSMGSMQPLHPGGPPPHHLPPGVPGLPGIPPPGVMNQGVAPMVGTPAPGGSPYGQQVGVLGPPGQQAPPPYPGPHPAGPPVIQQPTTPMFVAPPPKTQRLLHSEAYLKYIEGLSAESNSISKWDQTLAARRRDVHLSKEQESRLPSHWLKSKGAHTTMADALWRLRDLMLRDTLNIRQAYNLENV
UniProt Q9NPF5: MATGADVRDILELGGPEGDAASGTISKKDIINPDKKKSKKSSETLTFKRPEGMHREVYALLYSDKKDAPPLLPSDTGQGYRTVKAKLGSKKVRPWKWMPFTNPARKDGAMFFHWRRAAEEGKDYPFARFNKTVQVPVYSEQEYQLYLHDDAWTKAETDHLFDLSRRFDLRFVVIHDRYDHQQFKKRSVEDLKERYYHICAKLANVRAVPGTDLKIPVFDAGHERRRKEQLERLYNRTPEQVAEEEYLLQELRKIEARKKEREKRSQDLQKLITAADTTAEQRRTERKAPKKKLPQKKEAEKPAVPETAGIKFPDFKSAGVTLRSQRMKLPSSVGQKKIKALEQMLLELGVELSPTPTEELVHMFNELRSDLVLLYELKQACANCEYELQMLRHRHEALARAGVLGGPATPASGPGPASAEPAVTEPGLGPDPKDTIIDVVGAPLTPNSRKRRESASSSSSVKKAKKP

Results are given in words; binding and its absence hold for the method and conditions named. Binding seen in cells or lysates may run through a third protein. A yes stands for co-enrichment or nearness to the bait. Other partners may have been found. A no says only that the protein was not detected with the bait.

For the test, the target named is FLAG-V5-tagged U2-B” (FV5-U2-B”) (UniProt P08579). As to the kind of experiment: affinity purification with mass spectrometry; in vitro splicing reaction of NEB” nuclear extract with AdML pre-mRNA and ATPγS, Sephacryl-S500 gel filtration, pooled spliceosome fractions on anti-FLAG M2 Affinity Gel, mass spectrometry; two independent experiments. (In general: Size exclusion chromatography separates by hydrodynamic size, large species first.)
As to RBBP4 (from UniProt Q09028 1-425), the binding entry was “binds”. On to EIF2C2 (from UniProt Q9UKV8 1-859), for which the binding entry is “binds”. Regarding TNKS1BP1 (from UniProt Q9C0C2 1-1729), the binding result was “binds”. TAF1 (from UniProt P21675 1-1893): the binding entry is given as “binds”. Turning to WBP7 (from UniProt Q9UMN6 1-2715), the binding result is on record as “binds”. The value for PRMT5 (from UniProt O14744 1-637) was “binds”. For the substance NASP (from UniProt P49321 1-788), the binding result is given as “binds”.

On to POLE3 (from UniProt Q9NRF9 1-147), for which the binding result was “binds”. The value for SMARCD1 (from UniProt Q96GM5 1-515) was “binds”. On to SHPRH (from UniProt Q149N8 1-1683), for which the binding result is recorded as “binds”. On to DOT1L (from UniProt Q8TEK3 1-1537), for which the binding entry was “binds”. As to CBX3 (from UniProt Q13185 1-183), the binding entry is reported as “binds”.

For SMARCE1 (from UniProt Q969G3 1-411), the binding entry is “binds”. As for EHMT1 (from UniProt Q9H9B1-4), the binding result is reported as “binds”.

For SETD1A (from UniProt O15047 1-1707), the binding result is “binds”.

For SMARCD2 (from UniProt Q92925 1-531), the binding result was “binds”. For the substance CHD5 (from UniProt Q8TDI0 1-1954), the binding entry is “binds”. As for CBX2 (from UniProt Q14781 1-532), the binding result is listed as “binds”. Take DICER1 (from UniProt Q9UPY3 1-1922): the binding entry was “binds”.

EHMT2 (from UniProt Q96KQ7 1-1210): the binding result is “binds”. Take C6ORF130 (from UniProt Q9Y530 1-152): the binding result is given as “binds”. On to BRD8 (from UniProt Q9H0E9-4), for which the binding entry is “binds”. Take KAT6B (from UniProt Q8WYB5-3): the binding result is listed as “binds”. For SMARCA1 (from UniProt P28370 1-1042), the binding result is given as “binds”. For the substance HERC2 (from UniProt O95714 1-4834), the binding result is given as “binds”. Consider SMARCA5 (from UniProt O60264 1-1052), for which the binding entry is given as “binds”. Consider HAT1 (from UniProt O14929 1-419), for which the binding entry is on record as “no binding”. The result for SMARCC2 (from UniProt Q8TAQ2 1-1214) reads “binds”. For the substance ACTL6A (from UniProt O96019 1-429), the binding result is “binds”. The result for TAF5 (from UniProt Q15542 1-800) reads “no binding”. The result for HDAC2 (from UniProt Q92769 1-488) reads “binds”.

HP1BP3 (from UniProt Q5SSJ5 1-553): the binding entry is “binds”.

BRD7 (from UniProt Q9NPI1 1-651): the binding entry was “binds”. As for BRD1 (from UniProt O95696 1-1058), the binding entry is “binds”.

Regarding MORF4L1 (from UniProt Q9UBU8 1-362), the binding result is “binds”.

With PBRM1 (from UniProt Q86U86 1-1689), the binding result is “binds”. With HDAC1 (from UniProt Q13547 1-482), the binding result is “binds”. Regarding CHD7 (from UniProt Q9P2D1 1-2997), the binding result is given as “binds”.

SMARCB1 (from UniProt Q12824 1-385): the binding result is listed as “binds”.

For DMAP1 (from UniProt Q9NPF5 1-467), the binding entry is recorded as “binds”. The value for BRCA2 (from UniProt P51587 1-3418) was “binds”; that for H2AFY2 (from UniProt Q9P0M6 1-372) was “binds”; that for PARP4 (from UniProt Q9UKK3 1-1724) was “binds”.

As to TRIM28 (from UniProt Q13263 1-835), the binding result is given as “binds”.

Regarding NCOR1 (from UniProt O75376 1-2440), the binding result is “binds”. Regarding EIF2C1 (from UniProt Q9UL18 1-857), the binding entry was “binds”.
